In the supplement of paper PMC10973195:
± gives the standard deviation of the averaged measurements. The list shows a part of the results. These are raw signals, not scaled to a control.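 In this assay, LPS from bacteria induces microglia-mediated neuronal death in a neuron–microglia–astrocyte co-culture, a model of inflammatory neurodegeneration. Compounds were compared against same-plate DMSO vehicle wells, with the SYK inhibitor BAY61-3606 as reference neuroprotective control.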

Key:
Settings in all cases: 1 µM, treatment time 3 days
[1] = test system: rat primary cerebellar neuron-glia coculture; test: microglia count (IB4+) per image field (cells per field); higher = more microglia
[2] = test system: rat primary cerebellar neuron-glia coculture; test: necrotic cell count (DRAQ7+) per image field (cells per field); higher = more necrosis
[3] = test system: rat primary cerebellar neuron-glia coculture; test: live neuron count (NeuO+) per image field (cells per field); higher = more surviving neurons
[4] = test system: rat primary cerebellar neuron-glia coculture; test: median microglial FormFactor (circularity) per image (dimensionless (0-1)); higher = rounder, more ameboid microglia

Compound	microglia count ([1]; LPS 0 ng/mL)	microglia count ([1]; LPS 100 ng/mL)	necrotic cell count ([2]; LPS 0 ng/mL)	necrotic cell count ([2]; LPS 100 ng/mL)	live neuron count ([3]; LPS 0 ng/mL)	live neuron count ([3]; LPS 100 ng/mL)	median microglial FormFactor ([4]; LPS 0 ng/mL)	median microglial FormFactor ([4]; LPS 100 ng/mL)
CC(C)Cc1ccc([C@@H](C)C(=O)NS(C)(=O)=O)cc1	328 ± 590	423 ± 60	76.5 ± 38	924 ± 240	2420 ± 750	265 ± 210	0.539 ± 0.081	0.676 ± 0.056
COc1ccc(-n2nc(C(N)=O)c3c2C(=O)N(c2ccc(N4CCCCC4=O)cc2)CC3)cc1	158 ± 27	443 ± 78	79 ± 25	1020 ± 350	2590 ± 490	190 ± 220	0.554 ± 0.081	0.653 ± 0.07
NS(=O)(=O)c1cc(C(=O)NCCOc2ccccc2)c(Cl)cc1Cl	328 ± 520	418 ± 72	81.7 ± 32	1020 ± 370	2610 ± 780	328 ± 400	0.534 ± 0.066	0.666 ± 0.078
O=C(O)Cc1ccccc1Nc1c(Cl)cccc1Cl	161 ± 28	556 ± 74	80.6 ± 27	860 ± 300	2670 ± 470	602 ± 460	0.543 ± 0.075	0.454 ± 0.059
C#Cc1cccc(Nc2ncnc3cc(OCCOC)c(OCCOC)cc23)c1	165 ± 55	476 ± 97	91.6 ± 31	801 ± 440	2670 ± 440	641 ± 760	0.512 ± 0.091	0.622 ± 0.1
Oc1ccc(Nc2nc(-c3cccs3)cs2)cc1	141 ± 38	526 ± 300	79.9 ± 30	855 ± 350	2570 ± 490	322 ± 330	0.551 ± 0.068	0.657 ± 0.062
O=C(Nc1nnn[nH]1)NC1CCCCC1	154 ± 31	455 ± 100	96.7 ± 43	988 ± 410	2690 ± 390	298 ± 280	0.527 ± 0.074	0.686 ± 0.067
Cn1ncnc1COc1nn2c(-c3cc(F)ccc3F)nnc2cc1C(C)(C)C	146 ± 28	611 ± 140	141 ± 52	132 ± 130	2630 ± 470	2460 ± 510	0.65 ± 0.1	0.488 ± 0.09
CCN(CC)C(=O)Cc1csc(NS(=O)(=O)c2cccc(Cl)c2C)n1	177 ± 59	435 ± 77	90 ± 38	970 ± 220	2630 ± 380	346 ± 300	0.542 ± 0.083	0.61 ± 0.082
CCc1nc(N)nc(N)c1-c1ccc(Cl)cc1	130 ± 31	556 ± 60	221 ± 63	172 ± 53	2480 ± 640	2440 ± 510	0.754 ± 0.077	0.518 ± 0.056
Cc1nn(C)c2nc(NNC(=O)Nc3cc(Cl)nc(Cl)c3)cc(C(C)C)c12	158 ± 36	450 ± 100	80.9 ± 31	975 ± 250	2690 ± 410	452 ± 630	0.616 ± 0.12	0.645 ± 0.072
CC(C)C[C@H](NC(=O)[C@@H](O)[C@H](N)Cc1ccccc1)C(=O)O	155 ± 33	550 ± 320	85.6 ± 28	831 ± 420	2480 ± 450	219 ± 240	0.541 ± 0.085	0.692 ± 0.079
Cn1c(CO)c(-c2ccccc2)c2cc([N+](=O)[O-])ccc21	169 ± 62	423 ± 57	83.3 ± 28	957 ± 340	2600 ± 490	427 ± 370	0.533 ± 0.079	0.659 ± 0.067
CC(C)(F)C[C@H](N[C@@H](c1ccc(-c2ccc(S(C)(=O)=O)cc2)cc1)C(F)(F)F)C(=O)NC1(C#N)CC1	162 ± 32	493 ± 93	84.1 ± 27	880 ± 290	2640 ± 450	252 ± 260	0.536 ± 0.065	0.674 ± 0.051
CCOC(=O)C1=C(C)NC(=O)NC1c1ccsc1 (stereo not given)	161 ± 54	463 ± 140	103 ± 58	895 ± 440	2710 ± 550	511 ± 550	0.569 ± 0.066	0.617 ± 0.13
O=C(c1ccccc1)c1ccc2n1CCC2C(=O)O (stereo not given)	162 ± 46	543 ± 67	89 ± 34	781 ± 280	2530 ± 630	745 ± 760	0.553 ± 0.081	0.455 ± 0.064
Cc1cccc(Nc2nc(N[C@@H]3CCCC[C@@H]3N)ncc2C(N)=O)c1	42.9 ± 9.5	389 ± 67	214 ± 63	245 ± 170	2780 ± 530	2030 ± 600	0.655 ± 0.078	0.521 ± 0.12
CCCc1c(C)c2ccc(O)cc2oc1=O	161 ± 52	432 ± 89	90.2 ± 32	1020 ± 440	2700 ± 530	355 ± 310	0.516 ± 0.14	0.623 ± 0.078
COc1cc2nc(N(C)CCCNC(=O)C3CCCO3)nc(N)c2cc1OC (stereo not given)	152 ± 41	456 ± 63	95.2 ± 30	443 ± 190	2620 ± 610	1430 ± 1100	0.536 ± 0.055	0.593 ± 0.098
COC(=O)C1=C(C)NC(C)=C(C(=O)OC)C1c1ccccc1[N+](=O)[O-]	162 ± 46	431 ± 70	74.6 ± 16	1030 ± 290	2480 ± 280	297 ± 240	0.551 ± 0.081	0.693 ± 0.052
O=C(NCC1(c2ccc(F)cc2)CCCC1)C1CCN(Cc2ccccc2)CC1	176 ± 56	412 ± 97	79.2 ± 21	1110 ± 400	2620 ± 440	261 ± 300	0.562 ± 0.097	0.649 ± 0.092
Cc1ccc(C(=O)N(CCCN)[C@@H](c2nc3cc(Cl)ccc3c(=O)n2Cc2ccccc2)C(C)C)cc1	208 ± 68	384 ± 73	85.2 ± 26	869 ± 330	1990 ± 380	294 ± 320	0.453 ± 0.082	0.701 ± 0.084
Cc1ccc(C2=NCCN2)cc1	189 ± 47	432 ± 100	74.5 ± 42	995 ± 500	2620 ± 620	682 ± 1000	0.537 ± 0.13	0.645 ± 0.073
FC(F)(F)c1c(N2CCC(c3ccccc3)CC2)ccn2c(CC3CC3)nnc12	162 ± 38	457 ± 120	85.7 ± 30	1060 ± 290	2700 ± 520	247 ± 210	0.557 ± 0.087	0.64 ± 0.059
O=C(O)c1ccc(NC(=O)[C@H](CC2CCCC2)n2cnc(C(F)(F)F)c2)nc1	177 ± 53	436 ± 80	87.6 ± 36	1010 ± 400	2710 ± 560	478 ± 600	0.557 ± 0.087	0.631 ± 0.089
